The values below come from the supplement of paper PMC10849652.

Amino acid sequences for entries named in this document (tags omitted). A change or cut given only in a name is not applied to a line headed by its entry.
UniProt Q09028, whole entry, looked up: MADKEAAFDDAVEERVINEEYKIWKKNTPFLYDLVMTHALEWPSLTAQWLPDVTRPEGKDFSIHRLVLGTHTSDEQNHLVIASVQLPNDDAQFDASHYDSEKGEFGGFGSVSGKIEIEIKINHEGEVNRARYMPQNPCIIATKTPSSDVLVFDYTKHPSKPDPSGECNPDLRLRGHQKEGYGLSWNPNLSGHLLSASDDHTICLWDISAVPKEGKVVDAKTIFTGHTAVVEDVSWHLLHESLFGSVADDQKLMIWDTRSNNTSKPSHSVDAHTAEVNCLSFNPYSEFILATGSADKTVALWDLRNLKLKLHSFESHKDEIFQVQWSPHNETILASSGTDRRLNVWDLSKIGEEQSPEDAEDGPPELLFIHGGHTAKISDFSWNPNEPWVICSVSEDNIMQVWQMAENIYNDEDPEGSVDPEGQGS
UniProt Q13905: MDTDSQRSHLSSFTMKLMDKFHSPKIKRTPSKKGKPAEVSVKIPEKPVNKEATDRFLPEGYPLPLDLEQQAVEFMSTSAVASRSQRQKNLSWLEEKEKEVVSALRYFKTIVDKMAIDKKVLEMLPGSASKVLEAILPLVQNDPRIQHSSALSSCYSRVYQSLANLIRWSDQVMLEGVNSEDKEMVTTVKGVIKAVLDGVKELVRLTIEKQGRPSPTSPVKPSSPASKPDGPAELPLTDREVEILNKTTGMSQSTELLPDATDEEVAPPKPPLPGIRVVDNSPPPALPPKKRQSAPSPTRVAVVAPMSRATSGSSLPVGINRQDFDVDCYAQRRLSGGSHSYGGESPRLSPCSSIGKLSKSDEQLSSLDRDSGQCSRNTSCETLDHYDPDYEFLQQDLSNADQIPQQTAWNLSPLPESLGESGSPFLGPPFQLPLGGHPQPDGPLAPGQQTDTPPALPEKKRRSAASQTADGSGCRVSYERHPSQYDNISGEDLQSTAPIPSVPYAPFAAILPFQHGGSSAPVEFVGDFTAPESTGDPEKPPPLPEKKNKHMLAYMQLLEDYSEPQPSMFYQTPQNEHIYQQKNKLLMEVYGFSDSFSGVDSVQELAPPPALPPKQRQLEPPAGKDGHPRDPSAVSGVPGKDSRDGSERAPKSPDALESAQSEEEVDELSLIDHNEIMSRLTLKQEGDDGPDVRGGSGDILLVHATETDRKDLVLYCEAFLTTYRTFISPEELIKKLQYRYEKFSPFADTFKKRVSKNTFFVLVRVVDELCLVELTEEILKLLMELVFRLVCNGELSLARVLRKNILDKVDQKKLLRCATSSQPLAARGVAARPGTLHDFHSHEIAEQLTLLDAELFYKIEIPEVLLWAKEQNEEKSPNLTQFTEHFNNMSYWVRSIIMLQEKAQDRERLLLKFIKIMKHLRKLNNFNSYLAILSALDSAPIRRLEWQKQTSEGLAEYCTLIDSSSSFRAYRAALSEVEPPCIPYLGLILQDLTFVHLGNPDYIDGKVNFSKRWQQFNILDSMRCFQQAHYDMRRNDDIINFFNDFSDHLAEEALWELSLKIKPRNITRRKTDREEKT
UniProt Q86U06: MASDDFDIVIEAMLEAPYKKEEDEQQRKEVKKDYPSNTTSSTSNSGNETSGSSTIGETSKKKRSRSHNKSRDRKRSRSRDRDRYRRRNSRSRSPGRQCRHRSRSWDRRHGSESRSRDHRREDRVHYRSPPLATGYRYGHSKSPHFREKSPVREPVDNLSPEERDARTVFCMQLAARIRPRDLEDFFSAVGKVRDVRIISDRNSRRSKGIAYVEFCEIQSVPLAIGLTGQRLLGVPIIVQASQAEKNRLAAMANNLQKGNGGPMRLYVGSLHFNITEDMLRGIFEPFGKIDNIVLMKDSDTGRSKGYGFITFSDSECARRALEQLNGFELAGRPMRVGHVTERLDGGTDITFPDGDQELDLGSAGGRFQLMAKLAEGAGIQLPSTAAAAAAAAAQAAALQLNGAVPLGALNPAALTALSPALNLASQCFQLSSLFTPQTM
UniProt O00194: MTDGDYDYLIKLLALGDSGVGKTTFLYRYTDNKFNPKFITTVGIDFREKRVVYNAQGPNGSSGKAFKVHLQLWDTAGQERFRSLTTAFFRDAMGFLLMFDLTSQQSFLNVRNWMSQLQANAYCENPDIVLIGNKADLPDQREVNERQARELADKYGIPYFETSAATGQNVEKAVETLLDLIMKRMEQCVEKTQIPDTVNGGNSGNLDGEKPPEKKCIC
UniProt Q86WH2: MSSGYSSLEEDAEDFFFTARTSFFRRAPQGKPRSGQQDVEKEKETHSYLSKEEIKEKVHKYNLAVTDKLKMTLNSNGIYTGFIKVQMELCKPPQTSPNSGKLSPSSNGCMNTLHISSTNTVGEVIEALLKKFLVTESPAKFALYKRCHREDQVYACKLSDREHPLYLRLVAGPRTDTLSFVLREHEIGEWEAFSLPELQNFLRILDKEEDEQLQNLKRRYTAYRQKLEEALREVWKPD
UniProt O95716: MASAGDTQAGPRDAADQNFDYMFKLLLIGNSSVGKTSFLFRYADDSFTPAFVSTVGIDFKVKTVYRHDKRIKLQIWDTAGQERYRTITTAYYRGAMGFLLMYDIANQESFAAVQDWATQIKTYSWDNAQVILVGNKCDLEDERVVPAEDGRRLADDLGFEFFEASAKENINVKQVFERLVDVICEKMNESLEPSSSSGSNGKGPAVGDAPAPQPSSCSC
UniProt Q5T8P6: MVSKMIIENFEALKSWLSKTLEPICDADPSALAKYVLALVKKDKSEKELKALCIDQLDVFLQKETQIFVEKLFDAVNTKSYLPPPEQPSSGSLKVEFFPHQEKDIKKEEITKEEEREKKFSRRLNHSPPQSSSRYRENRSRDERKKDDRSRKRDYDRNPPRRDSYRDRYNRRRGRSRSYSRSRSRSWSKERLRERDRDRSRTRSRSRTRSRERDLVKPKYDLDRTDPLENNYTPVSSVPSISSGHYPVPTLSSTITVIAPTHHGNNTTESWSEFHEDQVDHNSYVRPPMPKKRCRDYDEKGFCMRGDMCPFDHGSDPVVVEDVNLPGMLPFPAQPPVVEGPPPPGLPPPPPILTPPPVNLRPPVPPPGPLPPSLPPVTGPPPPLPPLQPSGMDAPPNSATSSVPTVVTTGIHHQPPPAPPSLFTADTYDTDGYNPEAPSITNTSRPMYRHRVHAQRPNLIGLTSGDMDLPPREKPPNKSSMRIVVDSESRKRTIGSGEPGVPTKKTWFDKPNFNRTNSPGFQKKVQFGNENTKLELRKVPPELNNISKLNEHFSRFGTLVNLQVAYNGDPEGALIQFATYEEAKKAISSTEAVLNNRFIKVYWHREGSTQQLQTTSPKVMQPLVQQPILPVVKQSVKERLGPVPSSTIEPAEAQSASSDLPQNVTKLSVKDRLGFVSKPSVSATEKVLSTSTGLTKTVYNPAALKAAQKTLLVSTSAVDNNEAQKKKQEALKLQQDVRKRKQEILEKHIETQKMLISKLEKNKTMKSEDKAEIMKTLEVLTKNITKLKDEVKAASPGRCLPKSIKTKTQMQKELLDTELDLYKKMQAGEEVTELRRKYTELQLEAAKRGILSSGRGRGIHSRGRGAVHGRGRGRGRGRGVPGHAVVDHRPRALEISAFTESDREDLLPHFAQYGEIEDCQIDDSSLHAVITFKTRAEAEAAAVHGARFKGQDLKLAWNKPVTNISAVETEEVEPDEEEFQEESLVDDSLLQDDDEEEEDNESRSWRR
UniProt Q9H477: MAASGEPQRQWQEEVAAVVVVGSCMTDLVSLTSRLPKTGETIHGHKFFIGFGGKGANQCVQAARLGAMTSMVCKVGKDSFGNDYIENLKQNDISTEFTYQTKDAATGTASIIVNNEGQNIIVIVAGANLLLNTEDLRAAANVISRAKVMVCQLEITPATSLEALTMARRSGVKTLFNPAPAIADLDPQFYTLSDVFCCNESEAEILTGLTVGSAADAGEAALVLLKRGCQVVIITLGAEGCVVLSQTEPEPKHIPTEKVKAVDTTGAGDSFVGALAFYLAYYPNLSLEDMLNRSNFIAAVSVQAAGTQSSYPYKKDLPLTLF
UniProt Q15311: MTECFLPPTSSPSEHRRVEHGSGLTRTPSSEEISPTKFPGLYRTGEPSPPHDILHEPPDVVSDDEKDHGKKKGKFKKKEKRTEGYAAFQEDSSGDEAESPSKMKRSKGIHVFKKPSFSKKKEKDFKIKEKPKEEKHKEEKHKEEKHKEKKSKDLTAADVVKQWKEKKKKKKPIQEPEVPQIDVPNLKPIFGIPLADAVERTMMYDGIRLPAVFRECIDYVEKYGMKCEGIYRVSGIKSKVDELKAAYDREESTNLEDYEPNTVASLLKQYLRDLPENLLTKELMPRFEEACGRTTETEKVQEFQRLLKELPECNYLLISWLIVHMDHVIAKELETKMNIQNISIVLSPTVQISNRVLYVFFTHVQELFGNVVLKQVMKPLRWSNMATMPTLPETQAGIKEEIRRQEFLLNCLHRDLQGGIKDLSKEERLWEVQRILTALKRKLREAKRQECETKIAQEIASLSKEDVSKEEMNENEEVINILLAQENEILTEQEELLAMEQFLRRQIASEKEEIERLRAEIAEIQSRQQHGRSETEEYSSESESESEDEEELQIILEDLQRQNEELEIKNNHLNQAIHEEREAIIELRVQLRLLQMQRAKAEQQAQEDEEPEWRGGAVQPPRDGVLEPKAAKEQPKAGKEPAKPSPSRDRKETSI
UniProt P20936: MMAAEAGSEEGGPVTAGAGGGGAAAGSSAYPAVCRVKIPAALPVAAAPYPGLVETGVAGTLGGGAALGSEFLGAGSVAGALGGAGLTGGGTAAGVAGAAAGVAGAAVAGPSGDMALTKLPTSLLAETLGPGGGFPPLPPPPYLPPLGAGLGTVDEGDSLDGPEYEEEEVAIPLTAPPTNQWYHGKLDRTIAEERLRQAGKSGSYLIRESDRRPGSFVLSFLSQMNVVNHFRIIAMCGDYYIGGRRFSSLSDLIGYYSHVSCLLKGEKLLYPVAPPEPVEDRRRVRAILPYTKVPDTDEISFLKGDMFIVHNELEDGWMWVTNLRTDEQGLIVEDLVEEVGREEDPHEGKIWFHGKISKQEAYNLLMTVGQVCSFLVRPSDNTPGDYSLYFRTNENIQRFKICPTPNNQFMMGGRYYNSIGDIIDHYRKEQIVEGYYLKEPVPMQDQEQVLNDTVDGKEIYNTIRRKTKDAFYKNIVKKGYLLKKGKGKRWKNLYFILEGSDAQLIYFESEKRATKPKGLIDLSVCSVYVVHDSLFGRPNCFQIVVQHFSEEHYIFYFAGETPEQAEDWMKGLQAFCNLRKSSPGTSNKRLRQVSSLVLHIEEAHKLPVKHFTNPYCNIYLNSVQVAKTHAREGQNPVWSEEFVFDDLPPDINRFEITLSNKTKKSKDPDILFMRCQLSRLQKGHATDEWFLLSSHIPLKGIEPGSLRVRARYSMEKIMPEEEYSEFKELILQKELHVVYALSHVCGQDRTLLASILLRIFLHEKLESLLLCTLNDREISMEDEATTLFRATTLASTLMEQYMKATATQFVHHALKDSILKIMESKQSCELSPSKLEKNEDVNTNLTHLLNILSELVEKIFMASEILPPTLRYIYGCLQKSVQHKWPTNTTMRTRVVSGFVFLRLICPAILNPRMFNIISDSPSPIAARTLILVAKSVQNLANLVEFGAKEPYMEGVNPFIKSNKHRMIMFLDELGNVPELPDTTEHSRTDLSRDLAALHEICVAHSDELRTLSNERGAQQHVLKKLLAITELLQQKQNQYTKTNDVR
UniProt Q99708: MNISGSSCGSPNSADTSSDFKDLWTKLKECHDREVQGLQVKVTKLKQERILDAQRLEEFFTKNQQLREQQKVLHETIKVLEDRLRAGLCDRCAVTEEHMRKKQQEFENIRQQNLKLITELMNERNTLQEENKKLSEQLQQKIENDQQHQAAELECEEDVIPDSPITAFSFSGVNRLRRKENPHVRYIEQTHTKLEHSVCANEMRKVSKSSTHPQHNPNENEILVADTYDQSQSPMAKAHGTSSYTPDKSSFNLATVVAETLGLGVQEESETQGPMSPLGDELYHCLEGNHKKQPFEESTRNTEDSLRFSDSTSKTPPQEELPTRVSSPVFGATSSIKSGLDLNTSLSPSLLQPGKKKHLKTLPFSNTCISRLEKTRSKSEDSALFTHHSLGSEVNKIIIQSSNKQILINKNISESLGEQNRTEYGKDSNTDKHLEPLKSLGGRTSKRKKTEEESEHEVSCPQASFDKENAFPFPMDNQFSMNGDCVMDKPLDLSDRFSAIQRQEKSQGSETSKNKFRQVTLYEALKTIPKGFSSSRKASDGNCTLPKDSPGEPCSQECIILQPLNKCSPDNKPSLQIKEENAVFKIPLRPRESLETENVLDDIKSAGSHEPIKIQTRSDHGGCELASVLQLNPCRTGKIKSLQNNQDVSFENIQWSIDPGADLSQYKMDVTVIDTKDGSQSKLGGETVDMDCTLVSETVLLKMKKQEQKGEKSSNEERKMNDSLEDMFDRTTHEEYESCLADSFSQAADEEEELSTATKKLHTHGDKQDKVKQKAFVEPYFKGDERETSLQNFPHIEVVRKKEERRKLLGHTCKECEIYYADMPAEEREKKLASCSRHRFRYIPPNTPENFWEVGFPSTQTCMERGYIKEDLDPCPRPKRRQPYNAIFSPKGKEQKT

This is one part of the list.

Compound in the first experiment: C=CC(=O)N1CCC[C@@H](n2nc(-c3ccc(Oc4ccccc4)cc3)c3c(N)ncnc32)C1 [ibrutinib]
The experiment can be described thus: log2 fold change, soluble protein after heating vs DMSO (PISA); higher = thermal stabilisation; K562 cells, 10 uM, 30 min; active = over 0.2 and 3.5 SD of the protein, either way, in both replicates (recomputed). The method, boiled down:
(§1)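 K562 cells (2×10^6 cells/mL) were treated with 10 μM compound for 30 min, and aliquots were heated for 3 min over 48°C-58°C. Pooled aliquots were extracted in PBS with 0.5% NP-40 at 4°C, and the supernatant after 21,000xg for 90 min was measured by TMTpro 16plex LC-MS/MS with channel sums equalised. Reported thermal stability, relative to control samples and from duplicates, is a log2 fold change.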
RBBP4 isoform 2 (UniProt Q09028): the log2 fold change was inactive: 0.031.

With RBM14 (UniProt Q96PK6), the log2 fold change was inactive: 0.15.

Regarding RAPGEF1 isoform 3 (UniProt Q13905), the log2 fold change was inactive: 0.052.

On to RAD50, A0A494C0Y7, for which the log2 fold change was inactive: 0.072.

Regarding RAB19 isoform 2 (UniProt A4D1S5), the log2 fold change is inactive: 0.14.

As for RBL1 (UniProt P28749), the log2 fold change is inactive: 0.073.

Turning to RANBP3 isoform 2 (UniProt Q9H6Z4), the log2 fold change is inactive: -0.007.

As for RAI1 (UniProt Q7Z5J4), the log2 fold change is inactive: 0.1.

With RAB18 (UniProt H0Y6T8), the log2 fold change was inactive: -0.149.

Regarding RBM23 (UniProt Q86U06), the log2 fold change is inactive: 0.147.

For RASA2 (UniProt Q15283), the log2 fold change is inactive: -0.266.

Take RAD51D (UniProt O75771): the log2 fold change was inactive: -0.077.

Turning to RAB27B (UniProt O00194), the log2 fold change is inactive: 0.023.

RAPGEF5, A0A590UJR0: the log2 fold change was inactive: -0.031.

Consider RALGAPB (UniProt Q86X10), for which the log2 fold change is inactive: 0.

Regarding RASSF3 (UniProt Q86WH2), the log2 fold change is inactive: -0.125.

As to RAB3D (UniProt O95716), the log2 fold change is inactive: -0.096.

Compound in the next experiment: CC(=O)c1cnc2ccc(-c3cc(Cl)c(O)c(Cl)c3)nc2c1N[C@H]1CC[C@H](CN(C)C)CC1
The description is as above. The method, boiled down:
as §1
Turning to RBBP4 isoform 2 (UniProt Q09028), the log2 fold change is inactive: 0.02.

As for RBM14 (UniProt Q96PK6), the log2 fold change was inactive: 0.072.

Regarding RBM26 isoform 3 (UniProt Q5T8P6), the log2 fold change is inactive: -0.528.

For the target RBKS (UniProt Q9H477), the log2 fold change is inactive: -0.091.

RAB28 (UniProt P51157): the log2 fold change is inactive: 0.012.

As to RAD50, A0A494C0Y7, the log2 fold change is inactive: -0.037.

Turning to RALBP1 (UniProt Q15311), the log2 fold change is inactive: -0.236.

In the case of RASA1 (UniProt P20936), the log2 fold change is inactive: 0.085.

Regarding RASA2 (UniProt Q15283), the log2 fold change was inactive: -0.244.

As for RBBP8 isoform 2 (UniProt Q99708), the log2 fold change was inactive: -0.301.

For RAP1B (UniProt F5GWU8), the log2 fold change is inactive: -0.488.

RBCK1 (UniProt Q9BYM8): the log2 fold change was inactive: -0.064.

For RAD51D (UniProt O75771), the log2 fold change was inactive: -0.304.

Turning to RAB27B (UniProt O00194), the log2 fold change is inactive: 0.047.

With RAPGEF5, A0A590UJR0, the log2 fold change is inactive: -0.025.

As for RALGAPB (UniProt Q86X10), the log2 fold change is inactive: -0.074.

Take RASSF3 (UniProt Q86WH2): the log2 fold change is inactive: 0.223.

As to RAB3D (UniProt O95716), the log2 fold change was inactive: -0.02.
